# Assay results as given in patent US8846912B2, “Tartrate salts of quinazoline based EGFR inhibitors containing a zinc binding moiety” (Curis, Inc., priority 2007, dated 2014).
# Experiments:
# Assay in all cases: Cell proliferation assay (ATPlite)
# Type in all cases: cell-based
# Colon_HCT116 = conditions: HCT116, Colon cancer (Table D); read-out: IC50 in cancer cell line
# Protocol: (§1) Cell Proliferation Assay:
# (§2) Cancer cell lines were plated at 5,000 to 10,000 per well in 96-well flatted bottomed plates with various concentration of compounds. The cells were incubated with compounds for 72 hours in the presence of 0.5% of fetal bovine serum. Growth inhibition was accessed by adenosine triphosphate (ATP) content assay using Perkin Elmer ATPlite kit. ATPlite is an ATP monitoring system based on firefly luciferase. Briefly, 25 μl of mammalian cell lysis solution was added to 50 μl of phenol red-free culture medium per well to lyse the cells and stabilize the ATP. 25 μl of substrate solution was then added to the well and subsequently the luminescence was measured.
# Breast_MCF7 = conditions: MCF-7, Breast adenocarcinoma (Table D); read-out: IC50 in cancer cell line
# Protocol: as §1, §2
# Caki-1 Renal carcinoma = conditions: Caki-1, Renal carcinoma (Table D); read-out: IC50 in cancer cell line
# Protocol: as §1, §2
# Breast_SkBr3 = conditions: SKBr3, Breast carcinoma (Table D); read-out: IC50 in cancer cell line
# Protocol: as §1, §2
# Breast_MDAMB468 = conditions: MDA-MB-468, Breast adenocarcinoma (Table D); read-out: IC50 in cancer cell line
# Protocol: as §1, §2
# [1] = tested on: MDA-MB-231 Breast adenocarcinoma; conditions: MDA-MB-231, Breast adenocarcinoma (Table D); read-out: IC50 in cancer cell line
# Protocol: as §1, §2
# Prostate_PC3 = conditions: PC-3, Prostate adenocarcinoma (Table D); read-out: IC50 in cancer cell line
# Protocol: as §1, §2
# Epidermoid_A431 = conditions: A431, Epidermoid carcinoma (Table D); read-out: IC50 in cancer cell line
# Protocol: as §1, §2
# Prostate_22RV1 = conditions: 22RV1, Prostate carcinoma (Table D); read-out: IC50 in cancer cell line
# Protocol: as §1, §2
smiles,measurement,setting,value
O=C(CCCCCCC(=O)Nc1ccccc1)NO [SAHA],IC50,Colon_HCT116,500 to 5000 nM
same,IC50,Breast_MCF7,500 to 5000 nM
same,IC50,Caki-1 Renal carcinoma,50 to 500 nM
same,IC50,Breast_SkBr3,500 to 5000 nM
same,IC50,Breast_MDAMB468,500 to 5000 nM
same,IC50,[1],50 to 500 nM
same,IC50,Prostate_PC3,500 to 5000 nM
same,IC50,Epidermoid_A431,500 to 5000 nM
same,IC50,Prostate_22RV1,50 to 500 nM
